According to patent publication US20250034527A1:
No constants are given. Whether binding was seen depends on the method and setting. Some binding calls cover weakened binding; strength is not graded here.

Chains of the proteins cited; added tags and fusions are not shown. Residues count along the entry.
UniProt Q9ULV1, residues 40-161: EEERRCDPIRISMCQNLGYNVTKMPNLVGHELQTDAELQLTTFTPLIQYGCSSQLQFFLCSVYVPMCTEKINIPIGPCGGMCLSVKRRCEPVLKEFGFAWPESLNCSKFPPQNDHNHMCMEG

Target: Fzd4 CRD (human) (UniProt Q9ULV1)
Experiment: summary statement of specificity in Example 1

B1: 4AF30 (designed binder)
chain: SELGKRLIRAALDGNKDRVKDLIENGADVNASLMSGTTPLYAAAMNGHKEVVKLLISKGADVNAQSVAGSTPLVAAANFGHNEVVKLLISKGADVNAVTAFGVTPLHAAAADGHKEVVKLLISKGADVNAKAGRGMTPLHIAAFRGHKEVVKLLISKGADLNTSAKDGATPLDMARESGNEEVVKLLEKQLE
binding: binds
